# Measurements taken from the supplement of paper PMC10338343.
# ± gives the standard deviation. Only a part is listed here, and it is no random draw. Many of these values have a large error.
# System: MILI (PIWIL2) piRISC loaded with piRNA #1 (26 nt)
# Experiment: pre-steady-state target cleavage rate (min^-1); MIWI and MILI are mouse PIWI proteins and EfPiwi is from a freshwater sponge; tags in brackets are library labels; higher = faster piRNA-guided slicing of the target
# Conditions: guide: piRNA #1 5'p-UGAGGUAGUAGGUUGUAUAGUAUCCA; auxiliary factor: 500 nM mouse GTSF1
# Outline: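 For Cleave-'n-Seq, a transcribed, DNA-blocked target RNA library […] met 1 nM active affinity-purified piRISC with one synthetic guide at 33 °C for 0–8 or 0–960 min in HEPES–potassium acetate buffer, with or without 500 nM GTSF1 partner protein. Uncleaved targets were sequenced and normalised to depth and weakly complementary targets, with three trials pooled and k3 capped at 0.0001 min^-1. A burst-and-steady-state fit supplied the pre-steady-state cleavage rate.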
# 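Note: 1 nM active piRISC with 0.1 nM target library at 33 °C single turnover.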
row,Sequence,pre-steady-state target cleavage rate
1,GGAGACCUAUCUAUACAACCUUCAACCUCA,0.00235 ± 0.0036
2,GGAGACCUAUGAUAUGUUCCUACUACGAGA,0.000319 ± 0.013
3,GGAGACCUUACUAUACAACCAAGUACCUCA,0.0031 ± 0.0035
4,GGAGUGAGAUACUAUACAACCUACUACCUCA,0.189 ± 0.012
5,GGAGACCUAUGAAUUCAACCUACUACCUGA,0.000304 ± 0.0093
6,GGAGACCUAUGAUAUGAACCUACUACCUCG [g2:g14:cont:t1G],0.000396 ± 0.0064
7,GGAGACCUAACUAUACAAACUACUACCUCA,0.248 ± 0.025
8,GGAGACCUAUGAUUACAACCUACUUGGUCA,0.00021 ± 0.02
9,GGAGUGGAUUCUAAACAACCUACUACCUCA,0.143 ± 0.0089
10,GGAGACCUAACUAUACUUGGAUGAUGGAGA [g15:g21:cont:t1A],0.000108 ± 0.089
11,GGAGACCAUACUAUACAACCUACUUGCUCA,0.13 ± 0.032
12,GGAGACCUAUGAAUACAACCUUGAACCUCA,0.000188 ± 0.016
13,GGAGACCUAUCUAUACAACCUAGUACGUCA,0.00368 ± 0.0037
14,GGAGACCUUAUCUAUACAACCUACUACCUCA,0.115 ± 0.014
15,GGAGACCAUACUAUACAACCUAGAUCCUCA,0.0232 ± 0.0082
16,GGAGACCUAUGAUAACAACCUAGAUGGAGA [g9:g16:cont:t1A],0.000143 ± 0.021
17,GGAGACCUUACUAUACAACCUACGACCUCA,0.113 ± 0.012
18,GGAGACCUAACUAUACAACCUUCUACCUGA,0.00115 ± 0.01
19,GGAGACGAUACUAUACAACCUACAACCUCA,0.142 ± 0.019
20,GGAGACCUAUGAAAACAACCAACUACCUCA,0.0019 ± 0.0046

# Nine successive records from above:
row,Sequence,pre-steady-state target cleavage rate
11,GGAGACCAUACUAUACAACCUACUUGCUCA,0.13 ± 0.032
12,GGAGACCUAUGAAUACAACCUUGAACCUCA,0.000188 ± 0.016
13,GGAGACCUAUCUAUACAACCUAGUACGUCA,0.00368 ± 0.0037
14,GGAGACCUUAUCUAUACAACCUACUACCUCA,0.115 ± 0.014
15,GGAGACCAUACUAUACAACCUAGAUCCUCA,0.0232 ± 0.0082
16,GGAGACCUAUGAUAACAACCUAGAUGGAGA [g9:g16:cont:t1A],0.000143 ± 0.021
17,GGAGACCUUACUAUACAACCUACGACCUCA,0.113 ± 0.012
18,GGAGACCUAACUAUACAACCUUCUACCUGA,0.00115 ± 0.01
19,GGAGACGAUACUAUACAACCUACAACCUCA,0.142 ± 0.019

# Further records follow:

row,Sequence,pre-steady-state target cleavage rate
1,GGAGACCAUACUAUACAACCAACUAGCUCA,0.00107 ± 0.005
2,GGAGACCUAUGUAUACAACCUACGACCUCA,0.0402 ± 0.0075
3,GGAGACGAUACUAUACAACCUACUACAUCA,0.0978 ± 0.015
4,GGAGAGGAUAAUAUACAACCUACUACCUCA,0.135 ± 0.01
5,GGAGACGAUACUAUACAACGUACUACCACA,0.0317 ± 0.0055
6,GGAGACCUUAGAAUACAACCUACUACCUCA,0.011 ± 0.004
7,GGAGACCUAUGAUAUCAAGCUACUAGCUCA,0.000934 ± 0.0072
8,GGAGACGAUACUAUACAACCUACUAGGAGA [g6:g24:cont:t1A],0.00281 ± 0.0038
9,GGAGACCUAUGAUAUGUUGGUACUACCGUCA,0.000271 ± 0.028
10,GGAGACGAGACUAUACAACCUACUACCUCA,0.214 ± 0.034
11,GGAGACCUAUGAAUACAACCUAGAUGGAGA [g9:g18:cont:t1A],0.000636 ± 0.0066
12,GGAGACCUUUCUAUUCAACCUACUACCUCA,0.0926 ± 0.012
13,GGAGACCUAUGAUAUGAACCAACUACCACA,0.000142 ± 0.023
14,GGAGACCUAUCUAUACAUCCUACUACCUCA,0.182 ± 0.018
15,GGAGACCUAUGAUAACAACCUACUAGGACA,0.000183 ± 0.021
16,GGAGACCUAUGAUAACAACCUAGUACCUGA,0.000119 ± 0.029
17,GGAGACGAUUCUAUACAAGCUACUACCUCA,0.239 ± 0.01
18,GGAGUGGAUACUAUACAACCUACUACGACA,0.0497 ± 0.008
19,GGAGACCUAUCUAUAGAUCCUACUACCUCA,0.144 ± 0.017
20,GGAGACCUAACUAUACAACUCUACUACCUCA,0.000134 ± 0.046
